Source: the supplement of paper PMC6411743
± gives the standard deviation of the averaged measurements. The list shows a part of the results.

Assays:
Test in all cases: NP40-soluble protein abundance relative to vehicle (solubility fold change) (ratio); higher = more soluble protein in presence of GTP
CAMLG = biological target: T1, CAMLG (UniProt P49069)
T1 sequence (whole entry): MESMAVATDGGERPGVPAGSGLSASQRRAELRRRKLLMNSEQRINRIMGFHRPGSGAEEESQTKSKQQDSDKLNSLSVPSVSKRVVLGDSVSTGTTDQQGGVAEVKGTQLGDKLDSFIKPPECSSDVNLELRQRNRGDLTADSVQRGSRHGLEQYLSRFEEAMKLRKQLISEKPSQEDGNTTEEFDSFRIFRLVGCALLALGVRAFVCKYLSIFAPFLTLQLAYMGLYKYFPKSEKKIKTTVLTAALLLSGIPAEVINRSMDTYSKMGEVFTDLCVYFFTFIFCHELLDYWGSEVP
In short: (§1)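 Jurkat crude lysate prepared with a Dounce homogeniser was treated at eight concentrations spanning 0.1 to 10 mM, 10 min at room temperature then 3 min at 37 °C. Solubilisation with 0.8% NP40 and benzonase and ultracentrifugation preceded TMT labelling of the supernatant for LC-MS/MS. Fold change against the detergent-processed vehicle was determined per replicate from vsn-normalised intensities, across three independent experiments.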

GALNS = biological target: T2, GALNS (UniProt P34059)
T2 sequence (whole entry): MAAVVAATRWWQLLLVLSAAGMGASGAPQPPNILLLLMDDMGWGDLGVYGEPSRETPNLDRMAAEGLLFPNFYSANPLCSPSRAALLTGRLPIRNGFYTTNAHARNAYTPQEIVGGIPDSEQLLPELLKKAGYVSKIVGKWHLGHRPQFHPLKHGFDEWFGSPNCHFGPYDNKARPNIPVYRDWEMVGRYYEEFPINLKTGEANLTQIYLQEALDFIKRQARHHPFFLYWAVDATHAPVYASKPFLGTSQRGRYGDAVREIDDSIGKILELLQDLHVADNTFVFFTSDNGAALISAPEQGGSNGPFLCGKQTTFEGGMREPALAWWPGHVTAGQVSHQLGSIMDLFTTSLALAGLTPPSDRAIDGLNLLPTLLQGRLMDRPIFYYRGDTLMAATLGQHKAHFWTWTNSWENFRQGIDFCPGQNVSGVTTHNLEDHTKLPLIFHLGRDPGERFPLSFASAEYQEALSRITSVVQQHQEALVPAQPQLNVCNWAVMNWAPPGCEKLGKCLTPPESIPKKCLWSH
In short: as §1

GLRX = biological target: T3, GLRX (UniProt P35754)
T3 sequence (whole entry): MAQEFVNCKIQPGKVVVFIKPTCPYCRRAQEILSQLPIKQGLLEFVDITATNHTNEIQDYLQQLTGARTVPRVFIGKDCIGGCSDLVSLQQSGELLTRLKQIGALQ
In short: as §1

MDH2 = biological target: T4, MDH2 (UniProt P40926)
T4 sequence (whole entry): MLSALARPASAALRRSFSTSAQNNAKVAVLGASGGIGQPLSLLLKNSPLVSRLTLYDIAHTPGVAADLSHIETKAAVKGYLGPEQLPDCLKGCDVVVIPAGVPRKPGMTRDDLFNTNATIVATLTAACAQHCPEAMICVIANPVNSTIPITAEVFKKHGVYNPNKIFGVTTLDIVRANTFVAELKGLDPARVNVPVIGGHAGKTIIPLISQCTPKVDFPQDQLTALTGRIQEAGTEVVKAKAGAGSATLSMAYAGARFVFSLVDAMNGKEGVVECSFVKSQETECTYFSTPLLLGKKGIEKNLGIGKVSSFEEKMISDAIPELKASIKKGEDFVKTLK
In short: as §1

TMED10 = biological target: T5, TMED10 (UniProt P49755)
T5 sequence (whole entry): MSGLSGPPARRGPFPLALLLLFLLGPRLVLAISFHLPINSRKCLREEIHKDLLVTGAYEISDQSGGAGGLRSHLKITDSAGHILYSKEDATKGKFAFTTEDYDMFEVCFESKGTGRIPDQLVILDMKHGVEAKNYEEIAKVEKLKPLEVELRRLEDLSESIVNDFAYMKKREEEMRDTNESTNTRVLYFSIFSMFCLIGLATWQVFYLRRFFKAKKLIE
In short: as §1

UQCRFS1 = biological target: T6, UQCRFS1 (UniProt P47985)
T6 sequence (whole entry): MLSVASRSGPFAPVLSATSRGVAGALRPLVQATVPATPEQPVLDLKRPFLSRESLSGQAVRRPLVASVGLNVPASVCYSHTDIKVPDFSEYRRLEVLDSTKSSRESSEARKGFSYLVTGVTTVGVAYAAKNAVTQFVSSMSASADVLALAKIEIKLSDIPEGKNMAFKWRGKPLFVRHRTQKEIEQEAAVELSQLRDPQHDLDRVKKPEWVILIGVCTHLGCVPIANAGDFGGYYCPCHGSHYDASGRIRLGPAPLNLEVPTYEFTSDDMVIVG
In short: as §1

## Nc1nc2c(ncn2[C@@H]2O[C@H](COP(=O)(O)OP(=O)(O)OP(=O)(O)O)[C@@H](O)[C@H]2O)c(=O)[nH]1 [guanosine triphosphate]
CAMLG; concentration: 0.1mM
  NP40-soluble protein abundance: 0.947 ± 0.1
CAMLG; concentration: 0.5mM
  NP40-soluble protein abundance: 0.954 ± 0.069
CAMLG; concentration: 1mM
  NP40-soluble protein abundance: 0.965 ± 0.066
CAMLG; concentration: 2mM
  NP40-soluble protein abundance: 0.999 ± 0.13
CAMLG; concentration: 4mM
  NP40-soluble protein abundance: 0.955 ± 0.11
CAMLG; concentration: 6mM
  NP40-soluble protein abundance: 0.924 ± 0.1
CAMLG; concentration: 8mM
  NP40-soluble protein abundance: 0.963 ± 0.053
CAMLG; concentration: 10mM
  NP40-soluble protein abundance: 0.975 ± 0.077
GALNS; concentration: 0.1mM
  NP40-soluble protein abundance: 1.08 ± 0.24
GALNS; concentration: 0.5mM
  NP40-soluble protein abundance: 1.13 ± 0.22
GALNS; concentration: 1mM
  NP40-soluble protein abundance: 1.07 ± 0.28
GALNS; concentration: 2mM
  NP40-soluble protein abundance: 1.16 ± 0.31
GALNS; concentration: 4mM
  NP40-soluble protein abundance: 1.06 ± 0.42
GALNS; concentration: 6mM
  NP40-soluble protein abundance: 1.1 ± 0.3
GALNS; concentration: 8mM
  NP40-soluble protein abundance: 1 ± 0.16
GALNS; concentration: 10mM
  NP40-soluble protein abundance: 1.02 ± 0.28
GLRX; concentration: 0.1mM
  NP40-soluble protein abundance: 0.945 ± 0.083
GLRX; concentration: 0.5mM
  NP40-soluble protein abundance: 0.884 ± 0.025
GLRX; concentration: 1mM
  NP40-soluble protein abundance: 1.02 ± 0.073
GLRX; concentration: 2mM
  NP40-soluble protein abundance: 0.984 ± 0.012
GLRX; concentration: 4mM
  NP40-soluble protein abundance: 0.969 ± 0.058
GLRX; concentration: 6mM
  NP40-soluble protein abundance: 0.982 ± 0.046
GLRX; concentration: 8mM
  NP40-soluble protein abundance: 0.943 ± 0.071
GLRX; concentration: 10mM
  NP40-soluble protein abundance: 1.04 ± 0.059
MDH2; concentration: 0.1mM
  NP40-soluble protein abundance: 0.902 ± 0.1
MDH2; concentration: 0.5mM
  NP40-soluble protein abundance: 0.908 ± 0.091
MDH2; concentration: 1mM
  NP40-soluble protein abundance: 0.872 ± 0.1
MDH2; concentration: 2mM
  NP40-soluble protein abundance: 0.825 ± 0.082
MDH2; concentration: 4mM
  NP40-soluble protein abundance: 0.838 ± 0.098
MDH2; concentration: 6mM
  NP40-soluble protein abundance: 0.829 ± 0.074
MDH2; concentration: 8mM
  NP40-soluble protein abundance: 0.828 ± 0.1
MDH2; concentration: 10mM
  NP40-soluble protein abundance: 0.826 ± 0.09
TMED10; concentration: 0.1mM
  NP40-soluble protein abundance: 0.973 ± 0.045
TMED10; concentration: 0.5mM
  NP40-soluble protein abundance: 0.989 ± 0.025
TMED10; concentration: 1mM
  NP40-soluble protein abundance: 0.924 ± 0.045
TMED10; concentration: 2mM
  NP40-soluble protein abundance: 0.901 ± 0.037
TMED10; concentration: 4mM
  NP40-soluble protein abundance: 0.892 ± 0.047
TMED10; concentration: 6mM
  NP40-soluble protein abundance: 0.882 ± 0.037
TMED10; concentration: 8mM
  NP40-soluble protein abundance: 0.893 ± 0.047
TMED10; concentration: 10mM
  NP40-soluble protein abundance: 0.847 ± 0.062
UQCRFS1; concentration: 0.1mM
  NP40-soluble protein abundance: 0.971 ± 0.036
UQCRFS1; concentration: 0.5mM
  NP40-soluble protein abundance: 1.01 ± 0.04
UQCRFS1; concentration: 1mM
  NP40-soluble protein abundance: 0.942 ± 0.021
UQCRFS1; concentration: 2mM
  NP40-soluble protein abundance: 0.907 ± 0.015
